According to patent US20100092409A1 (DANISCO US, published 2010):
Positions count from the first letter of the chain named. Numbers in names are those of the source. These are yes or no findings as the source states them, for the method shown. Some results given as binding are weak or reduced against the parent protein; the word gives no strength. For some assays here: Where a sequence is shown, tags or fusion partners need not be part of it.

Sequences of proteins named here, by UniProt entry; tags and fusion partners are left off. A change or cut given only in a name is not applied to a line headed by its entry. A line that says so, or that is headed by a name, gives the form on record, which may keep a tag or linker. Residues count along the entry.
vascular endothelial growth factor (VEGF) (P15692-4, form named): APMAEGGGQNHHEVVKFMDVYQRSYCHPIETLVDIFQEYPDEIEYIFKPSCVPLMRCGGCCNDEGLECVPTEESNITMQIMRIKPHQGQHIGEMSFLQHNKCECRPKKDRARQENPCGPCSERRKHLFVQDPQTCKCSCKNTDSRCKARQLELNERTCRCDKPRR
UniProt P01137, residues 279-390: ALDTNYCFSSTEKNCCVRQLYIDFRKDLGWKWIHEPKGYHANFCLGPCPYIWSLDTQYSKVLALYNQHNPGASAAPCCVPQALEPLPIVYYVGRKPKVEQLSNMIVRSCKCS
UniProt P01375, residues 77-233: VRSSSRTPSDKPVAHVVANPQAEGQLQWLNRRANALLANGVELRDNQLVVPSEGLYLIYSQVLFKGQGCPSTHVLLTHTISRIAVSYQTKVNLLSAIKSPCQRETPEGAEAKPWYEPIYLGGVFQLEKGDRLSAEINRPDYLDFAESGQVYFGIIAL

T1: fibroblast growth factor 5 (FGF-5) (UniProt P12034)
T1 sequence (looked up): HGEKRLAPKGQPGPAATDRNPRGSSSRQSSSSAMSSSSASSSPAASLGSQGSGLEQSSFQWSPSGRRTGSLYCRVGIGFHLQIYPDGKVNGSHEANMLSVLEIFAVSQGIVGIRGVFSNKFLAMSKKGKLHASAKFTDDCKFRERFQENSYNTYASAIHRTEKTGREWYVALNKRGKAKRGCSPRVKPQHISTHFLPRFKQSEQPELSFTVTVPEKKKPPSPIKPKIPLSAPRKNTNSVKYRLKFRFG

B1: BBsb3-AV (soybean protease inhibitor IV or D-II with CK37281 in the second protease inhibitory loop) (designed binder)
chain: DPDDEYSKPCCDLCMCTRSMPPQCSCEDIRLNSCHSDCKSCACYNLYGWTCRCLDTNDFCYKPCKSRDD
B2: 2BBIck81 (BBI-AV; Bowman-Birk Inhibitor Anti-VegF) (designed binder)
chain: DDESSKPCCDQCACTKSNPPQCRCSDMRLNSCHSACKSCACYNLYGWTCFCVDITDFCYEPCKPSEDDKEN
B3: 1BBIck81 (BBI with the CK37281 peptide in the trypsin inhibitory loop) (designed binder)
chain: DDESSKPCCDQCACYNLYGWTCRCSDMRLNSCHSACKSCICALSYPAQCFCVDITDFCYEPCKPSEDDKEN
B4: PEN3-Q-BBIt-TGFβ1 (designed binder)
chain: DPDDESSKPCCDQCICTKSNPPQCRCSDMRPNSCHSACKSCACPENINVLPCTCADITDFCYEPCKPSE
notes: also called BBIt-PEN3-Q-A13I-L29P-F50T-V52A
B5: MM021W-Q-BBIt-TGFβ1 (designed binder)
chain: DPDDESSKPCCDQCICTKSNPPQCRCSDMRPNSCHSACKSCACKHNVDWLCTCADITDFCYEPCKPSE
notes: also called BBIt-MM021W-Q-A13I-L29P-F50T-V52A
B6: BBdb-AV (Dolichos biflorus Bowman Birk Inhibitor with CK37281 in the second protease inhibitory loop) (designed binder)
chain: DPSESSKPCCDQCACTKSIPPQCRCTDVRLNSCHSACSSCACYNLYGWTCVCVDMKDFCYEPCK
notes: also called BBIdb-AV
B7: BBtc-AV (Torresea cearensis Bowman Birk Inhibitor with CK37281 in the second protease inhibitory loop) (designed binder)
chain: DPSSKWEACCDRCACTKSIPPQCHCADIRLNSCHSACESCACYNLYGWTCRCFDITDFCYKPCSG
notes: also called BBItc-AV
B8: BBIt-VEGF-V5-A13I-S25R-M27A-L29P-S31A-F50K-V52T (designed binder)
chain: DPDDESSKPCCDQCICTKSNPPQCRCRDARPNACHSACKSCACKPSSASSCKCTDITDFCYEPCKPSE
notes: also called BBIt-AV-V5
B9: BBIt-VEGF-V6-A13I-S25R-M27A-L29P-S31A-F50K-V52T (designed binder)
chain: B8 chain with K44P, P45V, S46T, S47K, A48R, S49V, S50H
notes: also called BBIt-AV-V6
B10: BBIt-VEGF-V3-A13I-S25R-M27A-L29P-S31A-F50K-V52T (designed binder)
chain: B8 chain with K44R, S46T, S47G, A48H, S50L
notes: also called BBIt-AV-V3
B11: BBIt-VEGF-V2-A13I-S25R-M27A-L29P-S31A-F50K-V52T (designed binder)
chain: B8 chain with P45T, S46N, S47P, A48S, S49G
notes: also called BBIt-AV-V2
B12: BBIt-VEGF-V4-A13I-S25R-M27A-L29P-S31A-F50K-V52T (designed binder)
chain: B8 chain with P45H, S47A, A48K, S49A, S50E
notes: also called BBIt-AV-V4
B13: BBIt-VEGF-V1-A13I-S25R-M27A-L29P-S31A-F50K-V52T (designed binder)
chain: B8 chain with K44S, P45K, S46H, A48Q, S49I, S50T
notes: also called BBIt-AV-V1
B14: BBIt-VEGKD-A13I-S25K-L29P-V52K (designed binder)
chain: DPDDESSKPCCDQCICTKSNPPQCRCKDMRPNSCHSACKSCICKYDLYWWCFCKDITDFCYEPCKPSE
notes: also called VegKD-Q
B15: BBIt-AV-A13I-L29P-A40K-F50T-V52A (designed binder)
chain: B5 chain with A42K, K44Y, H45N, N46L, V47Y, D48G, L50T
notes: also called TA5; quintuple variant
B16: BBIt-AV-A13I-S25K-M27A-L29R-S31E-A40K-F50Q-V52Q (designed binder)
chain: DPDDESSKPCCDQCICTKSNPPQCRCKDARRNECHSACKSCKCYNLYGWTCQCQDITDFCYEPCKPSE
notes: also called QQ8
B17: BBIt-AV-A13I-A40K-F50T-V52A (designed binder)
chain: B16 chain with K27S, A29M, R31L, E33S, Q52T, Q54A
B18: BBIt-AV-A13I-S25R-M27A-L29P-S31A-A40H-F50K-V52T (designed binder)
chain: B16 chain with K27R, R31P, E33A, K42H, Q52K, Q54T
notes: also called KT8
B19: BBIt-AV-A13I-S25K-M27A-L29R-S31A-A40H-F50R-V52L (designed binder)
chain: B16 chain with E33A, K42H, Q52R, Q54L
notes: also called RL8
B20: MM007-Q-BBIt-FGF-5 (designed binder)
chain: B5 chain with K44R, H45T, N46Q, V47P, D48Y, W49P
notes: also called BBIt-MM007-Q-A13I-L29P-F50T-V52A
B21: FGFps2-Q-BBIt-FGF-5 (designed binder)
chain: B5 chain with K44T, H45W, N46I, V47D, D48S, W49T, L50P
notes: also called BBIt-FGFps2-Q-A13I-L29P-F50T-V52A
B22: BBIt-TNFα-T1-A13I-S25R-M27A-L29P-S31A-F50K-V52T (designed binder)
chain: B8 chain with K44R, P45Y, S46W, S47Q, A48D, S49I, S50P
notes: also called BBIt-TNF-T1
B23: BBIt-TNFα-T2-A13I-S25R-M27A-L29P-S31A-F50K-V52T (designed binder)
chain: B8 chain with K44A, S46E, S47P, A48I, S49L, S50A
notes: also called BBIt-TNF-T2
B24: BBIt-TNFα-T3-A13I-S25R-M27A-L29P-S31A-F50K-V52T (designed binder)
chain: B8 chain with K44D, P45M, S46I, S47M, A48V, S50I
notes: also called BBIt-TNF-T3
B25: BBIt-AV (truncated BBI-AV, unmodified variant) (designed binder)
chain: DDESSKPCCDQCACTKSNPPQCRCSDMRLNSCHSACKSCACYNLYGWTCFCVDITDFCYEPCKPSE
notes: also called CT

Molecular target: T2, vascular endothelial growth factor (VEGF) (UniProt P15692-4 27-191, limits assumed, labeled with biotin for the BioVeris assay (sites not given))
Test: no row for BBsb3-AV in Table 7

binding | Binder
binds | B1

Molecular target: T2, vascular endothelial growth factor …
Test: BioVeris ECL competition; ECL-labeled Anti-VegF antibody, biotinylated VegF, streptavidin beads

binding | Binder
binds | B2

Molecular target: T2, vascular endothelial growth factor …
Test: BioVeris ECL competition; competitor Anti-VegF antibody

binding | Binder
binds | ACYNLYGWTC [CK37281 peptide (synthesized VEGF binding peptide)]
binds | B2
binds | B3

Molecular target: transforming growth factor β1 (TGFβ1) (UniProt P01137)
Test: BioVeris ECL competition (summary of Table 7)

binding | Binder
binds | B4
binds | B5

Molecular target: T2, vascular endothelial growth factor …
Test: BioVeris ECL competition (summary of Table 7)

binding | Binder
binds | B6
binds | B7
binds | B8
binds | B9
binds | B10
binds | B11
binds | B12
binds | B13
binds | B14
binds | B15
binds | B16
binds | B17
binds | B18
binds | B19

Molecular target: T1, fibroblast growth factor 5 (FGF-5)
Test: BioVeris ECL competition (summary of Table 7)

binding | Binder
binds | B20
binds | B21

Molecular target: tumor necrosis factor α (TNFα) (UniProt P01375)
Test: BioVeris ECL competition (summary of Table 7)

Binder | binding
B22 | binds
B23 | binds
B24 | binds

Molecular target: T2, vascular endothelial growth factor …
Test: BioVeris ECL competition; competitor monoclonal antibody against VEGF

binding | Binder
binds | B2

Molecular target: T2, vascular endothelial growth factor …
Test: ECL (BioVeris) competition; competitor labeled monoclonal antibody against VEGF

binding | Binder
binds | B2
binds | B25
